In PMC12130725:
No constants are given. Whether binding was seen depends on the method and setting. Binding seen in cells or lysates may run through a third protein. Some binding calls cover weakened binding; strength is not graded here.

Sequences of proteins named here, by UniProt entry; tags and fusion partners are left off. Residues count along the entry.
UniProt Q15118, residues 29-436: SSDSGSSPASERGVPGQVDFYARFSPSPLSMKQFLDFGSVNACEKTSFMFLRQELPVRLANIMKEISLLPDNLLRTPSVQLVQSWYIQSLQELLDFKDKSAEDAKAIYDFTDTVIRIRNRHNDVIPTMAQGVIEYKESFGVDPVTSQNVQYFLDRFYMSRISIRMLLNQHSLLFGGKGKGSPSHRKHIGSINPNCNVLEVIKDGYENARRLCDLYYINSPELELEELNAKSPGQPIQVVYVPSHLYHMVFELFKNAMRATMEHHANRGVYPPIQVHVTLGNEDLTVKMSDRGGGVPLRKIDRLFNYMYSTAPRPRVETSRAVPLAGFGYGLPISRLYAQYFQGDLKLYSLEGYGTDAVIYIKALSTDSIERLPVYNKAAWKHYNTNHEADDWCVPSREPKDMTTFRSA

Biological target: Pyruvate dehydrogenase kinase 1 (human (endogenous in Skov3 and Caov3)) (UniProt Q15118)
Assay: co-IP; lysates from Skov3 or Caov3 cells incubated with the targeted antibodies (or goat-anti-rabbit IgG as a control) and A/G agarose beads at 4°C for 6 h; washed; western blot

- binding: binds
B1: Biglycan (protein, UniProt P21810 38-368)
chain: DEEASGADTSGVLDPDSVTPTYSAMCPFGCHCHLRVVQCSDLGLKSVPKEISPDTTLLDLQNNDISELRKDDFKGLQHLYALVLVNNKISKIHEKAFSPLRKLQKLYISKNHLVEIPPNLPSSLVELRIHDNRIRKVPKGVFSGLRNMNCIEMGGNPLENSGFEPGAFDGLKLNYLRISEAKLTGIPKDLPETLNELHLDHNKIQAIELEDLLRYSKLYRLGLGHNQIRMIENGSLSFLPTLRELHLDNNKLARVPSGLPDLKLLQVVYLHSNNITKVGVNDFCPMGFGVKRAYYNGISLFNNPVPYWEVQPATFRCVTDRLAIQFGNYKK
